Assay results published in the supplement of paper PMC8288183.
This is one part of the list. Single values are uncertain, as repeats are few or missing.

Target: T1, NSUN6 (UniProt Q8TEA1)
T1 sequence: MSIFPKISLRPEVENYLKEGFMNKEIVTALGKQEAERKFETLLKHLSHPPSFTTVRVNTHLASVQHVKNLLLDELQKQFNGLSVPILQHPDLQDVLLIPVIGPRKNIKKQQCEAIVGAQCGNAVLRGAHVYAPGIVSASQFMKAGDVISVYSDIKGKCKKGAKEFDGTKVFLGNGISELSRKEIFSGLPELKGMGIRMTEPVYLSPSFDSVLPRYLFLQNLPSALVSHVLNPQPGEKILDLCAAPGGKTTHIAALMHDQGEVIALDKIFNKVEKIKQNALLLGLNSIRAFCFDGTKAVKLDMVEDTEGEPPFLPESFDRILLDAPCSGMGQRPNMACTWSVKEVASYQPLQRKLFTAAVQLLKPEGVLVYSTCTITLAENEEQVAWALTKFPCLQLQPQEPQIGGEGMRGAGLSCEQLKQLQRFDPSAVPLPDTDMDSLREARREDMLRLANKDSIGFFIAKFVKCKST
Assay: m5C methylation level at the target C (C/(C+U) bisulfite reads) (fraction); higher = more methylation by NSUN6; extreme values may be limits of the assay
Settings: HEK293T (wild-type)
Description: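 High-throughput mutagenesis reporter. About 140 bp oligo-pool variants of four natural Type II m5C substrates (substrate #1 chr15:91425541; #2 RAB15 3'UTR chr14:65413377; #3 SULT2A1 5'UTR chr19:48389569; #4 NAAA CDS chr4:76857361) were cloned as 3'UTR elements of psiCHECK-2 luciferase and transfected into wild-type HEK293T cells. Total RNA was taken 48 h later and m5C level was measured by targeted bisulfite sequencing as C/(C+U) reads at the m5C site (one library).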

[1] = parent substrate: substrate #1 (main figure)

Sequence	m5C methylation level at the target C [1]	m5C methylation level at the target C (parent substrate: substrate #2)	m5C methylation level at the target C (parent substrate: substrate #3)	m5C methylation level at the target C (parent substrate: substrate #4)
ACCUGG	0	0	0.00219	0.00441
ACGGUA	0.0201	0.00215	0.00122	0
UCCCCA	0	0.00837	0.00296	0.00197
CCGUCG	0.00158	0	0.00186	0.0019
UCAUUG	0	0	0.00184	0
ACACUG	0.00082	0.00101	0.00193	0
GCAUUC	0.00129	0.00188	0	0
CCGGCU	0	0.00124	0.000352	0.00261
GCCAAU	0.00404	0	0	0.00124
UCCACA	0.00369	0.00171	0.000507	0.000728
ACGCGU	0.00179	0	0.000687	0.00223
UCUGCG	0.00132	0.00435	0.000481	0
UCUUAU	0.000794	0	0.000339	0.000871
GCGCCA	0.00105	0	0.00737	0.00313
CCGUCU	0	0	0.00772	0
CCAUUU	0.00161	0	0	0
UCAUGU	0	0	0.00607	0.00776
UCAUCC	0	0	0.00437	0.0128
UCGUGG	0.000804	0.00809	0.00205	0
ACGUUA	0	0	0.000528	0.000575

As a short view, some entries already given.
Sequence	m5C methylation level at the target C [1]	m5C methylation level at the target C (parent substrate: substrate #2)	m5C methylation level at the target C (parent substrate: substrate #3)	m5C methylation level at the target C (parent substrate: substrate #4)
CCGUCU	0	0	0.00772	0
CCAUUU	0.00161	0	0	0
UCAUGU	0	0	0.00607	0.00776

Continuation.

Sequence	m5C methylation level at the target C [1]	m5C methylation level at the target C (parent substrate: substrate #2)	m5C methylation level at the target C (parent substrate: substrate #3)	m5C methylation level at the target C (parent substrate: substrate #4)
UCAGAA	0	0.0107	0	0.0138
CCGUGU	0.00851	0.00426	0.000657	0
GCCGCU	0.000747	0.00279	0.000887	0.00157
GCAAAU	0.000559	0	0	0.000714
GCCUGC	0.00234	0.00236	0.000335	0
CCUCCC	0	0	0	0.00343
UCUAGA	0.00118	0	0.000799	0.00147
UCUGCU	0	0.00141	0.00215	0
UCGCUA	0	0.00152	0.00212	0.00184
CCGCAU	0	0.000623	0.00117	0.000444
GCACCC	0.00155	0.00283	0.00127	0.00092
GCCUUG	0.00167	0.00631	0.00215	0.0047
UCAAUG	0	0.00286	0	0
ACUUCG	0	0.00573	0	0.00136
CCCAUG	0.00255	0.00109	0.00277	0.00279
UCUCUA	0.227	0.016	0.194	0.158
ACAGCA	0	0	0.00456	0
ACGUUC	0.000773	0.00268	0.00286	0.00479
ACUUCA	0.00185	0	0.00099	0
CCGGGG	0.0131	0.000849	0.00155	0.000808
